# Results published in the supplement of paper PMC8728848.
# The other results are listed elsewhere or left out.
# B1: PX14375A-pdi-503-28-503 (Parabacteroides distasonis) (protein)
# chain: PLGSPEAGDISEERQAFLRLTAVYSVMKDFRYTWSMQCFGDVLSNDATYSGSSNDAQTFTLLENYQYQADHTEILNKYRYSYQCINKANLFIRDMEMADDALFSKYDKEQMIGEAKFIRAYTYFELVKTFGGVPCYTGVLDLDHERLGRASVEEIYSVIEQDLNDAVSVLPKKSEVANYESSYAGRITKGAAIAMQTRIYLYEKKYDEVKKAFEKFQNECGGEYSLVAPEDYTWQFSLDGEHCSSSILEVNMYNSSTQSSYNVNNGNRHVLMSMPRNMTIGFGCAQPTQALADAYDAEGDVIRKKTTLLSTEEAIEIETAAKGDVAPVTDDRTGWYNRKLYLAPGQREENRGNNQPTNLRLIRLAEVYLNYAEACYFSGDIANAQKYLNEVRSHVNLAPKNHTGSQLFEDIMNERHLEFGMEGFRFFDVVRVGWGEKVFNGTKKAEFGAKTPFSAGAEVLPIPQTEIDISDGLITN
# Legend:
# Assay in all cases: glycan array binding signal (z-score within array); higher = stronger binding
# Conditions in all cases: glycan notation: IUPAC condensed, linker removed
# [1] = biological target: Neu5Ac(a2-3)Gal(b1-3)GalNAc
# Outline: (§1)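 The binding signal is a Z-score computed within each array and averaged over linkers. Arrays of the same protein sequence at different concentrations or buffers were also averaged together. Data originate from 3228 arrays in the Consortium for Functional Glycomics database, kept only where the protein sequence was available.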
# [2] = biological target: Neu5Ac(a2-3)Gal(b1-3)GalNAc(b1-3)Gal(a1-4)Gal(b1-4)Glc
# Outline: as §1
# [3] = biological target: Neu5Ac(a2-3)Gal(b1-3)GalNAc(b1-4)[Neu5Ac(a2-3)]Gal(b1-4)Glc
# Outline: as §1
# [4] = biological target: Neu5Ac(a2-3)Gal(b1-3)GalNAc(b1-4)[Neu5Ac(a2-8)Neu5Ac(a2-3)]Gal(b1-4)Glc
# Outline: as §1
# [5] = biological target: Neu5Ac(a2-3)Gal(b1-3)GalNAc6S
# Outline: as §1
# [6] = biological target: Neu5Ac(a2-3)Gal(b1-3)GlcNAc
# Outline: as §1
# [7] = biological target: Neu5Ac(a2-3)Gal(b1-3)GlcNAc(b1-2)Man
# Outline: as §1
# [8] = biological target: Neu5Ac(a2-3)Gal(b1-3)GlcNAc(b1-2)Man(a1-3)[GlcNAc(b1-4)][Neu5Ac(a2-3)Gal(b1-3)GlcNAc(b1-2)Man(a1-6)]Man(b1-4)GlcNAc(b1-4)GlcNAc
# Outline: as §1
# [9] = biological target: Neu5Ac(a2-3)Gal(b1-3)GlcNAc(b1-2)Man(a1-3)[Neu5Ac(a2-3)Gal(b1-3)GlcNAc(b1-2)Man(a1-6)]Man(b1-4)GlcNAc(b1-4)GlcNAc
# Outline: as §1
# [10] = biological target: Neu5Ac(a2-3)Gal(b1-3)GlcNAc(b1-3)Gal(b1-3)GlcNAc
# Outline: as §1
# [11] = biological target: Neu5Ac(a2-3)Gal(b1-3)GlcNAc(b1-3)Gal(b1-4)GlcNAc
# Outline: as §1
# [12] = biological target: Neu5Ac(a2-3)Gal(b1-3)GlcNAc(b1-3)GalNAc
# Outline: as §1
# [13] = biological target: Neu5Ac(a2-3)Gal(b1-3)GlcNAc(b1-4)Gal(b1-4)Glc
# Outline: as §1
# [14] = biological target: Neu5Ac(a2-3)Gal(b1-3)GlcNAc(b1-6)GalNAc
# Outline: as §1
# [15] = biological target: Neu5Ac(a2-3)Gal(b1-3)GlcNAc6S
# Outline: as §1
# [16] = biological target: Neu5Ac(a2-3)Gal(b1-3)[Fuc(a1-4)]GlcNAc
# Outline: as §1
# [17] = biological target: Neu5Ac(a2-3)Gal(b1-3)[Fuc(a1-4)]GlcNAc(b1-3)Gal(b1-3)[Fuc(a1-4)]GlcNAc
# Outline: as §1
# [18] = biological target: Neu5Ac(a2-3)Gal(b1-3)[Fuc(a1-4)]GlcNAc(b1-3)Gal(b1-4)[Fuc(a1-3)]GlcNAc
# Outline: as §1
# [19] = biological target: Neu5Ac(a2-3)Gal(b1-3)[GlcNAc(b1-6)]GalNAc
# Outline: as §1
# [20] = biological target: Neu5Ac(a2-3)Gal(b1-3)[Neu5Ac(a2-6)]GalNAc
# Outline: as §1
# [21] = biological target: Neu5Ac(a2-3)Gal(b1-3)[Neu5Ac(a2-6)]GlcNAc(b1-3)[Fuc(a1-3)[Gal(b1-4)]GlcNAc(b1-6)]Gal(b1-4)Glc
# Outline: as §1
# [22] = biological target: Neu5Ac(a2-3)Gal(b1-3)]Neu5Ac(a2-3)Gal(b1-4)]GlcNAc
# Outline: as §1
# Neu5Ac(a2-3)Gal(b1-4)Glc = biological target: Neu5Ac(a2-3)Gal(b1-4)Glc
# Outline: as §1
# [23] = biological target: Neu5Ac(a2-3)Gal(b1-4)GlcNAc
# Outline: as §1
# [24] = biological target: Neu5Ac(a2-3)Gal(b1-4)GlcNAc(b1-2)Man
# Outline: as §1
# [25] = biological target: Neu5Ac(a2-3)Gal(b1-4)GlcNAc(b1-2)Man(a1-3)[GlcNAc(b1-4)][Neu5Ac(a2-3)Gal(b1-4)GlcNAc(b1-2)Man(a1-6)]Man(b1-4)GlcNAc(b1-4)GlcNAc
# Outline: as §1
# [26] = biological target: Neu5Ac(a2-3)Gal(b1-4)GlcNAc(b1-2)Man(a1-3)[Neu5Ac(a2-3)Gal(b1-4)GlcNAc(b1-2)Man(a1-6)]Man(b1-4)GlcNAc(b1-4)GlcNAc
# Outline: as §1
# [27] = biological target: Neu5Ac(a2-3)Gal(b1-4)GlcNAc(b1-2)Man(a1-3)[Neu5Ac(a2-3)Gal(b1-4)GlcNAc(b1-2)Man(a1-6)]Man(b1-4)GlcNAc(b1-4)[Fuc(a1-6)]GlcNAc
# Outline: as §1
# [28] = biological target: Neu5Ac(a2-3)Gal(b1-4)GlcNAc(b1-2)Man(a1-3)[Neu5Ac(a2-6)Gal(b1-4)GlcNAc(b1-2)Man(a1-6)]Man(b1-4)GlcNAc(b1-4)GlcNAc
# Outline: as §1
# [29] = biological target: Neu5Ac(a2-3)Gal(b1-4)GlcNAc(b1-2)[Neu5Ac(a2-3)Gal(b1-4)GlcNAc(b1-4)]Man(a1-3)[GlcNAc(b1-4)][Neu5Ac(a2-3)Gal(b1-4)GlcNAc(b1-2)[Neu5Ac(a2-3)Gal(b1-4)GlcNAc(b1-6)]Man(a1-6)]Man(b1-4)GlcNAc(b1-4)GlcNAc
# Outline: as §1
# [30] = biological target: Neu5Ac(a2-3)Gal(b1-4)GlcNAc(b1-2)[Neu5Ac(a2-3)Gal(b1-4)GlcNAc(b1-4)]Man(a1-3)[GlcNAc(b1-4)][Neu5Ac(a2-3)Gal(b1-4)GlcNAc(b1-4)Man(a1-6)]Man(b1-4)GlcNAc(b1-4)GlcNAc
# Outline: as §1
# [31] = biological target: Neu5Ac(a2-3)Gal(b1-4)GlcNAc(b1-2)[Neu5Ac(a2-3)Gal(b1-4)GlcNAc(b1-6)]Man(a1-6)[Neu5Ac(a2-3)Gal(b1-4)GlcNAc(b1-2)Man(a1-3)]Man(b1-4)GlcNAc(b1-4)GlcNAc
# Outline: as §1
# [32] = biological target: Neu5Ac(a2-3)Gal(b1-4)GlcNAc(b1-2)[Neu5Ac(a2-3)Gal(b1-4)GlcNAc(b1-6)]Man(a1-6)[Neu5Ac(a2-3)Gal(b1-4)GlcNAc(b1-2)Man(a1-3)][GlcNAc(b1-4)]Man(b1-4)GlcNAc(b1-4)GlcNAc
# Outline: as §1
# [33] = biological target: Neu5Ac(a2-3)Gal(b1-4)GlcNAc(b1-3)Gal
# Outline: as §1
# [34] = biological target: Neu5Ac(a2-3)Gal(b1-4)GlcNAc(b1-3)Gal(b1-3)GlcNAc
# Outline: as §1
# [35] = biological target: Neu5Ac(a2-3)Gal(b1-4)GlcNAc(b1-3)Gal(b1-4)GlcNAc
# Outline: as §1
# [36] = biological target: Neu5Ac(a2-3)Gal(b1-4)GlcNAc(b1-3)Gal(b1-4)GlcNAc(b1-2)Man(a1-3)[Neu5Ac(a2-3)Gal(b1-4)GlcNAc(b1-3)Gal(b1-4)GlcNAc(b1-2)Man(a1-6)]Man(b1-4)GlcNAc(b1-4)GlcNAc
# Outline: as §1
# [37] = biological target: Neu5Ac(a2-3)Gal(b1-4)GlcNAc(b1-3)Gal(b1-4)GlcNAc(b1-3)Gal(b1-4)GlcNAc
# Outline: as §1
# [38] = biological target: Neu5Ac(a2-3)Gal(b1-4)GlcNAc(b1-3)Gal(b1-4)GlcNAc(b1-3)Gal(b1-4)GlcNAc(b1-2)Man(a1-3)[Neu5Ac(a2-3)Gal(b1-4)GlcNAc(b1-3)Gal(b1-4)GlcNAc(b1-3)Gal(b1-4)GlcNAc(b1-2)Man(a1-6)]GalNAc
# Outline: as §1
# [39] = biological target: Neu5Ac(a2-3)Gal(b1-4)GlcNAc(b1-3)Gal(b1-4)GlcNAc(b1-3)GalNAc
# Outline: as §1
# [40] = biological target: Neu5Ac(a2-3)Gal(b1-4)GlcNAc(b1-3)Gal(b1-4)GlcNAc(b1-3)[Neu5Ac(a2-3)Gal(b1-4)GlcNAc(b1-3)Gal(b1-4)GlcNAc(b1-6)]GalNAc
# Outline: as §1
# [41] = biological target: Neu5Ac(a2-3)Gal(b1-4)GlcNAc(b1-3)Gal(b1-4)GlcNAc(b1-6)[Gal(b1-3)]GalNAc
# Outline: as §1
# [42] = biological target: Neu5Ac(a2-3)Gal(b1-4)GlcNAc(b1-3)Gal(b1-4)[Fuc(a1-3)]GlcNAc
# Outline: as §1
# [43] = biological target: Neu5Ac(a2-3)Gal(b1-4)GlcNAc(b1-3)GalNAc
# Outline: as §1
# [44] = biological target: Neu5Ac(a2-3)Gal(b1-4)GlcNAc(b1-3)[Neu5Ac(a2-3)Gal(b1-4)GlcNAc(b1-6)]GalNAc
# Outline: as §1
binder,measurement,setting,value
B1,glycan array binding signal (z-score),[1],-0.136
same,glycan array binding signal (z-score),[2],0.101
same,glycan array binding signal (z-score),[3],-0.284
same,glycan array binding signal (z-score),[4],-0.907
same,glycan array binding signal (z-score),[5],-0.28
same,glycan array binding signal (z-score),[6],-0.623
same,glycan array binding signal (z-score),[7],0.999
same,glycan array binding signal (z-score),[8],-0.42
same,glycan array binding signal (z-score),[9],0.826
same,glycan array binding signal (z-score),[10],-0.302
same,glycan array binding signal (z-score),[11],0.31
same,glycan array binding signal (z-score),[12],0.031
same,glycan array binding signal (z-score),[13],-0.815
same,glycan array binding signal (z-score),[14],-0.059
same,glycan array binding signal (z-score),[15],-0.911
same,glycan array binding signal (z-score),[16],-0.16
same,glycan array binding signal (z-score),[17],-0.148
same,glycan array binding signal (z-score),[18],0.243
same,glycan array binding signal (z-score),[19],-0.096
same,glycan array binding signal (z-score),[20],-0.125
same,glycan array binding signal (z-score),[21],-0.261
same,glycan array binding signal (z-score),[22],-0.21
same,glycan array binding signal (z-score),Neu5Ac(a2-3)Gal(b1-4)Glc,0.297
same,glycan array binding signal (z-score),[23],-0.063
same,glycan array binding signal (z-score),[24],0.112
same,glycan array binding signal (z-score),[25],-0.283
same,glycan array binding signal (z-score),[26],-0.508
same,glycan array binding signal (z-score),[27],-0.535
same,glycan array binding signal (z-score),[28],0.248
same,glycan array binding signal (z-score),[29],0.065
same,glycan array binding signal (z-score),[30],0.558
same,glycan array binding signal (z-score),[31],-0.587
same,glycan array binding signal (z-score),[32],0.219
same,glycan array binding signal (z-score),[33],-0.008
same,glycan array binding signal (z-score),[34],-0.225
same,glycan array binding signal (z-score),[35],0.104
same,glycan array binding signal (z-score),[36],-0.227
same,glycan array binding signal (z-score),[37],-0.259
same,glycan array binding signal (z-score),[38],1.01
same,glycan array binding signal (z-score),[39],-0.442
same,glycan array binding signal (z-score),[40],-0.036
same,glycan array binding signal (z-score),[41],0.005
same,glycan array binding signal (z-score),[42],0.01
same,glycan array binding signal (z-score),[43],-0.578
same,glycan array binding signal (z-score),[44],-0.565

# 3 consecutive records out of the list so far, for reference:
binder,measurement,setting,value
B1,glycan array binding signal (z-score),[28],0.248
same,glycan array binding signal (z-score),[29],0.065
same,glycan array binding signal (z-score),[30],0.558
